PubChem BioAssay AID743454 | Peter MacCallum Cancer Centre | 2014

Aim: 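Genes whose loss kills vorinostat-resistant colon cancer cells under vorinostat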 (primary screen)
Cell system: human HCT116-VR colon cancer cells, selected for vorinostat resistance
Knock-down reagent: siRNA pool against human genes, 40 nM siRNA pool
Duration: vorinostat for 24 h, read-out about 72 h after transfection
Challenge: vorinostat at 2.5 µM final
Measurement: 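Cell viability by CellTiter-Fluor and caspase 3/7 activity by luminescence, each scaled to mock wells per plate, duplicates averaged, then robust z-scored over all plates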
Reading the numbers: viability robust z-score: higher = more viable cells than screen typical; caspase robust z-score: higher = more caspase 3/7 activity than screen typical
Rule for the call: 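Hits are knock-downs in viability class RV1/RV2 or caspase class CA1/CA2, excluding ones that killed cells in the no-drug cell-count arm; hits then retested with single siRNAs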
Shown is an unselected part of about 18,000 reagents tested. 450 of all reagents (2.5%) were called active. 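Single biological run; no consistent viability z cut-off exists, so the class columns, not z-scores, define the calls.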 Reagent sequences are not shown.

How did the screen score GOPC (golgi associated PDZ and coiled-coil motif containing)?
viability hit class: no change; caspase hit class: no change; viability robust z-score: -0.2; caspase robust z-score: -1.08; call: inactive

For KPTN (kaptin, actin binding protein), what does the deposit list?
viability hit class: no change; caspase hit class: no change; viability robust z-score: -0.3; caspase robust z-score: 1.32; call: inactive

For OR4C46 (olfactory receptor family 4 subfamily C member 46), what was measured?
viability hit class: no change; caspase hit class: no change; viability robust z-score: -0.82; caspase robust z-score: 0.27; call: inactive

For DNAJB4 (DnaJ heat shock protein family (Hsp40) member B4), what was measured?
viability hit class: no change; caspase hit class: no change; viability robust z-score: -0.74; caspase robust z-score: -0.98; call: inactive

What did the screen give for RPL36 (ribosomal protein L36)?
viability hit class: no change; caspase hit class: no change; viability robust z-score: -3.46; caspase robust z-score: -0.82; call: inactive

For B4GALT4 (beta-1,4-galactosyltransferase 4), how do the results read?
viability hit class: no change; caspase hit class: CA2 (caspase activation); viability robust z-score: 0.6; caspase robust z-score: 7.43; call: active

2 entries from above, arranged by “caspase robust z-score”, descending:
B4GALT4 (beta-1,4-galactosyltransferase 4) — viability hit class: no change; caspase hit class: CA2 (caspase activation); viability robust z-score: 0.6; caspase robust z-score: 7.43; call: active
RPL36 (ribosomal protein L36) — viability hit class: no change; caspase hit class: no change; viability robust z-score: -3.46; caspase robust z-score: -0.82; call: inactive

Continued:
Which result is listed for HECTD1 (HECT domain E3 ubiquitin protein ligase 1)?
viability hit class: no change; caspase hit class: no change; viability robust z-score: -1.45; caspase robust z-score: -0.96; call: inactive

For PSMB1 (proteasome 20S subunit beta 1), what was measured?
viability hit class: no change; caspase hit class: no change; viability robust z-score: -4.63; caspase robust z-score: 1.75; call: inactive

What did the screen give for RBM4 (RNA binding motif protein 4)?
viability hit class: no change; caspase hit class: no change; viability robust z-score: 1.03; caspase robust z-score: 2.34; call: inactive

With NLRP10 (NLR family pyrin domain containing 10), how do the results read?
viability hit class: no change; caspase hit class: no change; viability robust z-score: 0.42; caspase robust z-score: -0.6; call: inactive

With BRDT (bromodomain testis associated), what was measured?
viability hit class: no change; caspase hit class: no change; viability robust z-score: -1.19; caspase robust z-score: -0.38; call: inactive

For NDST3 (N-deacetylase and N-sulfotransferase 3), how do the results read?
viability hit class: no change; caspase hit class: no change; viability robust z-score: -1.4; caspase robust z-score: -0.34; call: inactive
